PubChem BioAssay AID686943 | Drosophila RNAi Screening Center, 2013
In all, the deposit lists about 23,000 reagents; this is a random part of those with a known target gene and a result. 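Extra replicates exist only for a retested subset of genes; insulin dose and duration not given; both raised and lowered dpERK matter.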 Further read-outs or replicates are left out here. The record does not give: the amount of reagent, the time to read-out.

Test: 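Search across the genome for regulators of signalling from receptor tyrosine kinase to ERK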 (primary screen)
Cells: Drosophila S2R+ haemocyte-like cells expressing YFP-tagged ERK (Rolled)
Reagent: long dsRNA against Drosophila genes
Treatment: insulin stimulation versus unstimulated cells; dose and duration not given
Read-out: 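Antibody staining for doubly phosphorylated ERK divided by ERK-YFP signal, as plate z-scores, in insulin-treated and untreated cells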
Reading the numbers: replicate 1, z-score of dpERK with insulin: higher = more active ERK per ERK-YFP after insulin

boi [DRSC18425]
- replicate 1, z-score of dpERK with insulin: 0.58

boi [DRSC18598]
- replicate 1, z-score of dpERK with insulin: 0.46

CG13950 [DRSC00368]
- replicate 1, z-score of dpERK with insulin: -0.24

CG42561 [DRSC05676]
- replicate 1, z-score of dpERK with insulin: -0.31

CG43278 (retired record) [DRSC17524]
- replicate 1, z-score of dpERK with insulin: 0.03

CG8160 [DRSC07086]
- replicate 1, z-score of dpERK with insulin: 0.2

CG8160 [DRSC21434]
- replicate 1, z-score of dpERK with insulin: 0.18

PXo [DRSC09734]
- replicate 1, z-score of dpERK with insulin: 0.2

CG33770 [DRSC11717]
- replicate 1, z-score of dpERK with insulin: -0.23

CG11309 [DRSC11650]
- replicate 1, z-score of dpERK with insulin: 0.02

Pgam5-2 [DRSC04278]
- replicate 1, z-score of dpERK with insulin: -0.29

Brms1 [DRSC19896]
- replicate 1, z-score of dpERK with insulin: 0.82

CG17646 [DRSC00507]
- replicate 1, z-score of dpERK with insulin: -0.37

MnM [DRSC08423]
- replicate 1, z-score of dpERK with insulin: -0.01

Continued (2 carried over from the part before).
CG17646 [DRSC00507]
- replicate 1, z-score of dpERK with insulin: -0.37

MnM [DRSC08423]
- replicate 1, z-score of dpERK with insulin: -0.01

Pop4 [DRSC10955]
- replicate 1, z-score of dpERK with insulin: -0.19

CG32121 [DRSC09265]
- replicate 1, z-score of dpERK with insulin: -0.1

Khc-73 [DRSC07449]
- replicate 1, z-score of dpERK with insulin: 0.37

CG14687 [DRSC14910]
- replicate 1, z-score of dpERK with insulin: 1.7

CG17048 [DRSC06649]
- replicate 1, z-score of dpERK with insulin: 0.34

Fie [DRSC08158]
- replicate 1, z-score of dpERK with insulin: 1.36

m-cup [DRSC14430]
- replicate 1, z-score of dpERK with insulin: 0.2
